Experimental data published in the supplement of paper PMC10849652.
The other results are listed elsewhere or left out.

By UniProt entry, the sequences of proteins in these tests, tags left out. Where a name states a change or a piece, a line headed by the entry shows the natural chain unless it says otherwise.
UniProt Q6ZU65, whole entry, looked up: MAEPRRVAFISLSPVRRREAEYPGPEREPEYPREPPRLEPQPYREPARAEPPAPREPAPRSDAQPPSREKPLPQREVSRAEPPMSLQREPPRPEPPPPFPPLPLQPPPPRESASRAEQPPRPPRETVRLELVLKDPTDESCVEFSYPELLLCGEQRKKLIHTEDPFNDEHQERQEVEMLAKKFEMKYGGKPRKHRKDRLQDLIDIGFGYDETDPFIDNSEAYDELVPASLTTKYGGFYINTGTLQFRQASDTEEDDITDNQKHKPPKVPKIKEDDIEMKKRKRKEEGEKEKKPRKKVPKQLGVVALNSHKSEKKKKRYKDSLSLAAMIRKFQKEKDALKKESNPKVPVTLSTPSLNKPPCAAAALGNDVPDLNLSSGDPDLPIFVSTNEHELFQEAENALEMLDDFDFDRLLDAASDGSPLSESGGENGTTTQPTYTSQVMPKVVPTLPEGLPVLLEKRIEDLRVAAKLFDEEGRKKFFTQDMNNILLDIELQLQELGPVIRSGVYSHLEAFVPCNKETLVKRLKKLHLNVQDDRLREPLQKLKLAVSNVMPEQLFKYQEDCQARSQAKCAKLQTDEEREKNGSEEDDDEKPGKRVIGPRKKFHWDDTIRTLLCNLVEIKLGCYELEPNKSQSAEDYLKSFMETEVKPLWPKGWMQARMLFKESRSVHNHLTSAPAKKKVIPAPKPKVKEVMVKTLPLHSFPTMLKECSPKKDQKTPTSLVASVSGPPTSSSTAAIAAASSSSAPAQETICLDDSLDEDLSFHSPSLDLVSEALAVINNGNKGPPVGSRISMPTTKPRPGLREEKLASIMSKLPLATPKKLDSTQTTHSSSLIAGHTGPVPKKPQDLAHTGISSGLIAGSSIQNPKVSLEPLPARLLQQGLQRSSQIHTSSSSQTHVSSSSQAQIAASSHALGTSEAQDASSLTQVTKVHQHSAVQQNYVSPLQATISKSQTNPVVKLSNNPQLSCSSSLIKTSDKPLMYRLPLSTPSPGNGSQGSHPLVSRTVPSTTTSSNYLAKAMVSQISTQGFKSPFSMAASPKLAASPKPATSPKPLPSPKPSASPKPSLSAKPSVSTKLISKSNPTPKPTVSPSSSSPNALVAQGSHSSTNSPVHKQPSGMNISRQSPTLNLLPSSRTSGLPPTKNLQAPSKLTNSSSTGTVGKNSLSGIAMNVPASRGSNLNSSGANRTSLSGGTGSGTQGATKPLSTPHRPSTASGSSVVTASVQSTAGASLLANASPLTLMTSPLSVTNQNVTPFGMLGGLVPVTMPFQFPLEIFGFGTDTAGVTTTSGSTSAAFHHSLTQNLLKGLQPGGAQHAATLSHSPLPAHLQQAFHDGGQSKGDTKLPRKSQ
UniProt P22314: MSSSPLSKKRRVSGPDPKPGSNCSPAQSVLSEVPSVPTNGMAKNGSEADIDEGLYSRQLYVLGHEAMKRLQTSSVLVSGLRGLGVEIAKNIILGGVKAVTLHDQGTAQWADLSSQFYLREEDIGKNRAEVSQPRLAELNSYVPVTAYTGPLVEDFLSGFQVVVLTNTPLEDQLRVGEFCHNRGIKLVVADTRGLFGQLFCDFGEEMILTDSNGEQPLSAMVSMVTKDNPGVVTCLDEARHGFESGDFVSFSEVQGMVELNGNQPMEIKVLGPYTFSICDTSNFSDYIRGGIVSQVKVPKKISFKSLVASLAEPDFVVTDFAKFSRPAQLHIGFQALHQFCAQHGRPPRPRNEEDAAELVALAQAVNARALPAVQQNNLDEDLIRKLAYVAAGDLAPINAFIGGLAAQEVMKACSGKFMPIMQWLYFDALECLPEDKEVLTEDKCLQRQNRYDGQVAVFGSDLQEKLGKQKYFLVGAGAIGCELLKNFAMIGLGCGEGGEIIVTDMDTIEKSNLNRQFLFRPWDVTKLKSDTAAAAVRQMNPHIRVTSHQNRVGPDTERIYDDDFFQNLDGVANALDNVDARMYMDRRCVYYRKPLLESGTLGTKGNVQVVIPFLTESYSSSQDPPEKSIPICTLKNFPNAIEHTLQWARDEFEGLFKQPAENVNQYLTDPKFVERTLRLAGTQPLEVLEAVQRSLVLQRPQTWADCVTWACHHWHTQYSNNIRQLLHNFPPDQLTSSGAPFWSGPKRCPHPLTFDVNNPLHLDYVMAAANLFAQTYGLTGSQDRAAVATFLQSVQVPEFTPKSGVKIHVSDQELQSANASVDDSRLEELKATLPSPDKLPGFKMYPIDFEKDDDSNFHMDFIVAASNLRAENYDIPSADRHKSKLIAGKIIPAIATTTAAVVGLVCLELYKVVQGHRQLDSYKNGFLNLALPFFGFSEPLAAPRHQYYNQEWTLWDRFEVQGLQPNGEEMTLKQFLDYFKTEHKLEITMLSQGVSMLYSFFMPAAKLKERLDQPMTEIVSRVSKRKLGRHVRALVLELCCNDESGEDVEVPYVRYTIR
UniProt O15042: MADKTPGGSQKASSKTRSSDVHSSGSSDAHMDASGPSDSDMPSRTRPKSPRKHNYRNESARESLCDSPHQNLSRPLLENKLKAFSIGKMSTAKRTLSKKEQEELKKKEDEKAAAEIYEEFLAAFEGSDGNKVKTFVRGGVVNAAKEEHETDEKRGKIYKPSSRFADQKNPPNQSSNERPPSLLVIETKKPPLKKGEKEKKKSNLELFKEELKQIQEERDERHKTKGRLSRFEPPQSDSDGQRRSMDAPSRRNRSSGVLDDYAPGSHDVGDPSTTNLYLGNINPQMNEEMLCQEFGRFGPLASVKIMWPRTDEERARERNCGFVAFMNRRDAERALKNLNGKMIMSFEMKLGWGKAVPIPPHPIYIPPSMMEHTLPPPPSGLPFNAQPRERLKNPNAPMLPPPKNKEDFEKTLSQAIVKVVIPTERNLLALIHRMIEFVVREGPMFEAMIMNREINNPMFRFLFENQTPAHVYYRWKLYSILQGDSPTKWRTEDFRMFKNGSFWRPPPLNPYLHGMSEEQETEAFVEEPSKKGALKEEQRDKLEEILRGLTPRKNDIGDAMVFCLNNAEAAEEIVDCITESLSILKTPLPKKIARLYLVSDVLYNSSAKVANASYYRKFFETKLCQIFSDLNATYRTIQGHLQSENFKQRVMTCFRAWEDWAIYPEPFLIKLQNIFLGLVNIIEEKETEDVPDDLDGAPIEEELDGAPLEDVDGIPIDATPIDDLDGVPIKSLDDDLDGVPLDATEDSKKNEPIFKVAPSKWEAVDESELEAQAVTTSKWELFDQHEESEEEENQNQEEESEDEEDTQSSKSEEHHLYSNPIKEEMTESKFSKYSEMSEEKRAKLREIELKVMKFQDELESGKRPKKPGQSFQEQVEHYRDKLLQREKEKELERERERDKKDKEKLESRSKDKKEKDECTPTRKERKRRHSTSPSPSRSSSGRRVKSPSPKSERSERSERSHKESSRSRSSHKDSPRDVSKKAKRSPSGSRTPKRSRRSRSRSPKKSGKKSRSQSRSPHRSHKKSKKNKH
UniProt Q9H3M7: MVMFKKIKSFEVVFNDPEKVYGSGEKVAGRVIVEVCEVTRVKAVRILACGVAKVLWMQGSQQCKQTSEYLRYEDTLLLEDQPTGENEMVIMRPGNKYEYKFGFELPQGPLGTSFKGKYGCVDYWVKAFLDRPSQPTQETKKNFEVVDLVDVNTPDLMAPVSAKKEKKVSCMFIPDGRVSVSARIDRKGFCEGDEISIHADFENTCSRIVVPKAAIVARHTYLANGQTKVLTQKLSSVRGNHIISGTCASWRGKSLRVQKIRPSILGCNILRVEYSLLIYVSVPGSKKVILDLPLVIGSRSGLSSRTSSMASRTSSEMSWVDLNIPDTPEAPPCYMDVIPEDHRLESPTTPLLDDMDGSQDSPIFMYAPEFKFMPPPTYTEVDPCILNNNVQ
UniProt Q96S82: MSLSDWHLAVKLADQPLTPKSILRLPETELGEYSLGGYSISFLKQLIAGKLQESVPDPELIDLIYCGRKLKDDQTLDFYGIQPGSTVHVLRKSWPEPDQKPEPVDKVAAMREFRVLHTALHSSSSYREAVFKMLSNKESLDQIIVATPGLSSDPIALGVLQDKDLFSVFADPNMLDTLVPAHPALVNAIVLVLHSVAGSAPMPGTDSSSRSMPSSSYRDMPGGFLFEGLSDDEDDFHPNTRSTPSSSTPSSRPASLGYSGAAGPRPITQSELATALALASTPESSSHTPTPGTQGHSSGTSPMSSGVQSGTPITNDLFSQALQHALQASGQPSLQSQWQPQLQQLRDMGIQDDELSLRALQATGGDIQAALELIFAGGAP
UniProt P04350, whole entry, looked up: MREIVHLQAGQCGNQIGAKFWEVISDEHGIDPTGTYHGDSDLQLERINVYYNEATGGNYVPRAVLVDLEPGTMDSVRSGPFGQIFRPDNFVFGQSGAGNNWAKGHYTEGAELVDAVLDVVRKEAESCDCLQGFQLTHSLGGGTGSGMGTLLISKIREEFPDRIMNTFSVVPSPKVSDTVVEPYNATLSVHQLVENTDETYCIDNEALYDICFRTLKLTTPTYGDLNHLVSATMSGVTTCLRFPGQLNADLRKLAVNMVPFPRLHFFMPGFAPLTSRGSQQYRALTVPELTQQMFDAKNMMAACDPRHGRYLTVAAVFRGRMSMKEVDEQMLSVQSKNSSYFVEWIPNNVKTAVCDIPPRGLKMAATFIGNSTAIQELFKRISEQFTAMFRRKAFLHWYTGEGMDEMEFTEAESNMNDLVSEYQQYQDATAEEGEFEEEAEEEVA
UniProt O75896: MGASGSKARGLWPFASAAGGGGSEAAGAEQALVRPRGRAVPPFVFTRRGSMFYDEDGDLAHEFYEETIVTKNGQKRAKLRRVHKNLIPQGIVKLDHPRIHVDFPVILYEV
UniProt Q8NBM4: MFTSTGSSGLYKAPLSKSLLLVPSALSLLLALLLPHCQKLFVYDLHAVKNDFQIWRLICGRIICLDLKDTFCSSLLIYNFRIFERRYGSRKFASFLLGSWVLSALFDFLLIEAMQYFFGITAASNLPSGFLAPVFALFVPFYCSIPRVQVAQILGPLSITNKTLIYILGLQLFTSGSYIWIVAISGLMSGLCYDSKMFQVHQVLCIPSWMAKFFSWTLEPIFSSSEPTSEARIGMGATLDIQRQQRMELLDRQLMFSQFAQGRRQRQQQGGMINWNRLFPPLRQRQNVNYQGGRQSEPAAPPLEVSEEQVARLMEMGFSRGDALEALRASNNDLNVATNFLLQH
UniProt A6NHL2: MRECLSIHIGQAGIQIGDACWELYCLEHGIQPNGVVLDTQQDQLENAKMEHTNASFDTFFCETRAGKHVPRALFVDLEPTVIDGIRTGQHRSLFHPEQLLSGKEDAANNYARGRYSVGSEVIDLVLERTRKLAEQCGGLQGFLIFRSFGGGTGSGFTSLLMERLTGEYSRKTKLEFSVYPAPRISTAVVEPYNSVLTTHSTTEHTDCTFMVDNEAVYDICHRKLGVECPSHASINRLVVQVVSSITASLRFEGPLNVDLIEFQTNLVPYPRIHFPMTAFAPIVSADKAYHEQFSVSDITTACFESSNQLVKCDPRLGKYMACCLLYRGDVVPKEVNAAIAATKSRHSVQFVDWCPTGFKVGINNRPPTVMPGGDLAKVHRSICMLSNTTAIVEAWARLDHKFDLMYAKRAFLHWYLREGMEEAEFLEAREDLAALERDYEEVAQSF
UniProt O75386: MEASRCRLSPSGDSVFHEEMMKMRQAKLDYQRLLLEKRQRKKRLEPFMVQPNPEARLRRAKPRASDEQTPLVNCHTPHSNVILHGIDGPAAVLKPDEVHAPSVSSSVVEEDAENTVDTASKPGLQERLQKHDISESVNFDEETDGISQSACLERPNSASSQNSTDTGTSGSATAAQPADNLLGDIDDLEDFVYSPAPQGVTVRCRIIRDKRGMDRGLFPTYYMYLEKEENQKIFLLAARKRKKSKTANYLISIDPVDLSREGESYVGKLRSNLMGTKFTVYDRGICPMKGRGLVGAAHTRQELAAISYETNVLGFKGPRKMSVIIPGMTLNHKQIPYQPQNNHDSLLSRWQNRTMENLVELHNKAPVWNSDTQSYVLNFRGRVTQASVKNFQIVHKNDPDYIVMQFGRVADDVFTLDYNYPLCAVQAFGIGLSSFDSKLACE
UniProt P23258, whole entry, looked up: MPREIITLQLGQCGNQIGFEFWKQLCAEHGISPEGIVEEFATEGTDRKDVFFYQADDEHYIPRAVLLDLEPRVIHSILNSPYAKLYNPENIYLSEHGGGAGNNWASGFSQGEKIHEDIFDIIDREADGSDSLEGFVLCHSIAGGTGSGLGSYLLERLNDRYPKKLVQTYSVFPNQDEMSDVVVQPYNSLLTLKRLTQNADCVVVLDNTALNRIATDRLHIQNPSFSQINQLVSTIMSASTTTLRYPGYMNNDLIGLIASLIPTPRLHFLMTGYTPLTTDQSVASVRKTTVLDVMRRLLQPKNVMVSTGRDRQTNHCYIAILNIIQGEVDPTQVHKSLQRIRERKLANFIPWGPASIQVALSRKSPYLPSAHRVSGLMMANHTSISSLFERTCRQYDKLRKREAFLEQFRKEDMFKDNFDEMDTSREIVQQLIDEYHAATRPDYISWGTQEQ

Key:
Assay in all cases: log2 fold change, soluble protein after heating vs DMSO (PISA); higher = thermal stabilisation; K562 lysate, 10 uM; active = over 0.2 and 3.5 SD of the protein, either way, in both replicates (recomputed)
erlotinib = compound: C#Cc1cccc(Nc2ncnc3cc(OCCOC)c(OCCOC)cc23)c1 [erlotinib]
Method in brief: (§1)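 K562 pellets were dounce-homogenised in PBS pH 7.4 with 1 mM MgCl2, and the crude extract at 1 mg/mL protein was treated with 10 μM compound for 30 min. Aliquots were heated for 3 min across 48°C-58°C, pooled, and brought to 0.5% NP-40 at 4°C; soluble protein was the supernatant after 21,000xg for 90 min. Soluble protein was quantified by TMTpro 16plex LC-MS/MS with channel sums equalised, and reported as log2 fold change in thermal stability against DMSO controls, with values from duplicates.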

[1] = compound: C/C(=N\NC(=O)C1=CC(=CC=C1)S(=O)(=O)N2CCOCC2)/C3=C(C=CC(=C3)Cl)O
Method in brief: as §1

[2] = compound: C1=CC(=CC=C1C2=NC3=C(N2)C=C(C=C3)C(=O)N)OC4=CC=C(C=C4)Cl
Method in brief: as §1

[3] = compound: C1=CC2=C(C=CC(=C2)/C=C\3/C(=O)NC(=NCC4=CC=CS4)S3)N=C1
Method in brief: as §1

[4] = compound: C1=CC=C(C=C1)C2=NC(=C(N2)C3=CC=NC=C3)C4=CC(=C(C=C4)Cl)O
Method in brief: as §1

[5] = compound: C1=CC=C2C(=C1)C3=NNC4=CC=CC(=C43)C2=O
Method in brief: as §1

[6] = compound: C1CCN(C1)C(=O)NC2=CC=CC(=C2)NC3=NC=C(C(=N3)NCCC4=CN=CN4)Br
Method in brief: as §1

[7] = compound: C1CN(CCC1(CC2=CC=C(C=C2)Cl)N)C3=NC=NC4=C3C=CN4
Method in brief: as §1

IRAK-1-4 Inhibitor I = compound: C1COCCN1CCN2C3=CC=CC=C3N=C2NC(=O)C4=CC(=CC=C4)[N+](=O)[O-] [IRAK-1-4 Inhibitor I]
Method in brief: as §1

ralimetinib = compound: CC(C)(C)Cn1c(N)nc2ccc(-c3[nH]c(C(C)(C)C)nc3-c3ccc(F)cc3)nc21 [ralimetinib]
Method in brief: as §1

[8] = compound: CC(C)(O)CC(=O)NCCn1ccc2ncnc(Nc3ccc(Oc4cccc(C(F)(F)F)c4)c(Cl)c3)c21
Method in brief: as §1

[9] = compound: CC(C)C1=C2N=C(C=C(N2N=C1)NCC3=CC=CC=C3)NCCCCCCN
Method in brief: as §1

[10] = compound: CC1=C(C(CC(=O)N1)C2=CC=C(C=C2)C(F)(F)F)C(=O)NC3=C(C=C4C(=C3)C=NN4)F
Method in brief: as §1

[11] = compound: CC1=C(C2=C(C=C1)C(=O)C3=CC=CC=C3N2CCCN)C
Method in brief: as §1

[12] = compound: CC1=C(C=C(C=C1)NC(=O)C2=CC(=CC=C2)C(C)(C)C#N)NC3=CC4=C(C=C3)N=CN(C4=O)C
Method in brief: as §1

[13] = compound: CC1=C(C=C(C=C1)NC(=O)C2=CC(=CC=C2)N(C)C)NC(=O)C3=CC=C(C=C3)O
Method in brief: as §1

[14] = compound: C1=CC2=NC=CN=C2C=C1/C=C/3\C(=O)NC(=O)S3
Method in brief: as §1

ibrutinib = compound: C=CC(=O)N1CCC[C@@H](n2nc(-c3ccc(Oc4ccccc4)cc3)c3c(N)ncnc32)C1 [ibrutinib]
Method in brief: as §1

[15] = compound: CC(=O)c1cnc2ccc(-c3cc(Cl)c(O)c(Cl)c3)nc2c1N[C@H]1CC[C@H](CN(C)C)CC1
Method in brief: as §1

[16] = compound: CC1=CC=C(C=C1)SC2=C3C=C(SC3=CN=C2)C(=O)N
Method in brief: as §1

Target	log2 fold change (erlotinib)	log2 fold change [1]	log2 fold change [2]	log2 fold change [3]	log2 fold change [4]	log2 fold change [5]	log2 fold change [6]	log2 fold change [7]	log2 fold change (IRAK-1-4 Inhibitor I)	log2 fold change (ralimetinib)	log2 fold change [8]	log2 fold change [9]	log2 fold change [10]	log2 fold change [11]	log2 fold change [12]	log2 fold change [13]	log2 fold change [14]	log2 fold change (ibrutinib)	log2 fold change [15]	log2 fold change [16]
UBN2 (UniProt Q6ZU65)	inactive: 0.075	inactive: -0.442	inactive: -0.104	inactive: -0.18	inactive: -0.016	inactive: -0.084	inactive: -0.005	inactive: 0.172	inactive: 0.012	inactive: -0.063	inactive: -0.221	inactive: 0.04	inactive: -0.145	inactive: 0.008	inactive: -0.075	inactive: -0.162				
UBA1 (UniProt P22314)	inactive: 0.034	inactive: 0.017	inactive: -0.022	inactive: 0.003	inactive: 0.002	inactive: -0.044	inactive: 0	inactive: 0.02	inactive: -0.013	inactive: 0.053	inactive: 0	inactive: 0.027	inactive: -0.018	inactive: 0.006	inactive: 0	inactive: 0.015	inactive: 0.004	inactive: -0.002	inactive: 0.003	inactive: 0.02
U2SURP isoform 2 (UniProt O15042)	inactive: -0.315	inactive: 0.013	inactive: -0.109	inactive: 0.121		inactive: 0.043	inactive: 0.016	inactive: 0.106				inactive: 0.325		inactive: -0.028						
UBC (UniProt P0CG48)	inactive: 0.028	inactive: -0.012	inactive: -0.003	inactive: -0.032	inactive: -0.027	inactive: -0.018	inactive: 0.02	inactive: 0.02	inactive: -0.011	inactive: 0.007	inactive: 0.021	inactive: 0.011	inactive: -0.053	inactive: -0.006	inactive: 0.021	inactive: 0.025	inactive: -0.012	inactive: 0.01	inactive: 0	inactive: -0.007
UBA6	inactive: 0.007	inactive: 0	inactive: -0.004	inactive: 0.01	inactive: 0	inactive: -0.045	inactive: 0.001	inactive: -0.005	inactive: -0.022	inactive: 0.007	inactive: -0.007	inactive: -0.011	inactive: -0.006	inactive: -0.006	inactive: -0.01	inactive: 0.013	inactive: -0.004	inactive: -0.003	inactive: 0.002	inactive: 0.009
TXNIP (UniProt Q9H3M7)	inactive: 0.036	inactive: -0.165	inactive: -0.057	inactive: -0.045	inactive: -0.003	inactive: 0.048	inactive: -0.042	inactive: 0.017	inactive: 0.041	inactive: 0.007	inactive: -0.02	inactive: -0.053	inactive: 0.011	inactive: -0.036	inactive: 0.037	inactive: 0.016	inactive: -0.001	inactive: -0.009		
UBL7 (UniProt Q96S82)	inactive: -0.011	inactive: 0.076	inactive: -0.066	inactive: 0.022	inactive: 0.006	inactive: -0.016	inactive: 0.057	inactive: 0.144	inactive: -0.002	inactive: 0.019	inactive: -0.011	inactive: -0.011	inactive: 0.012	inactive: 0.018	inactive: 0.051	inactive: 0.003	inactive: -0.032	inactive: 0.075	inactive: -0.016	inactive: -0.01
TUBB4A (UniProt P04350)	inactive: 0.036		inactive: 0.015		inactive: -0.066		inactive: 0.017	inactive: -0.001	inactive: 0.086	inactive: 0.074	inactive: 0.039	inactive: 0.088	inactive: 0.009	inactive: -0.086	inactive: -0.085	inactive: -0.015	inactive: -0.016	inactive: 0.007	inactive: -0.018	inactive: -0.068
UBXN2B (UniProt Q14CS0)	inactive: -0.008	inactive: -0.079	inactive: 0.073	inactive: -0.045	inactive: -0.062	inactive: 0.149	inactive: -0.04	inactive: -0.046	inactive: -0.028	inactive: 0.087	inactive: -0.075	inactive: 0.002	inactive: -0.189	inactive: -0.192		inactive: 0.022	inactive: -0.01	inactive: 0.108	inactive: 0.19	inactive: -0.011
UBIAD1 (UniProt Q9Y5Z9)	inactive: 0.013	inactive: 0.16	inactive: -0.128	inactive: 0.092	inactive: 0.249	active: 0.46	inactive: 0.023	inactive: 0.057	inactive: -0.042	inactive: 0.01	inactive: 0.007	inactive: 0.067	inactive: -0.159	inactive: -0.049	inactive: 0.088	inactive: 0.012			inactive: -0.012	inactive: 0.009
TUSC2 (UniProt O75896)	inactive: -0.007		inactive: -0.136		inactive: 0.059		inactive: -0.078	inactive: 0.006	inactive: -0.088	inactive: -0.094	inactive: 0.147	inactive: -0.086	inactive: 0.01	inactive: -0.024		inactive: -0.296	inactive: -0.123	inactive: -0.023	inactive: -0.124	inactive: -0.021
UBAC2 (UniProt Q8NBM4)	inactive: 0.024	inactive: 0.015	inactive: -0.039	inactive: 0	inactive: 0.038	inactive: 0.011	inactive: -0.257	inactive: -0.009	inactive: 0.068	inactive: 0.039	inactive: -0.016	inactive: 0.071		inactive: -0.051	inactive: -0.019	inactive: -0.022	inactive: -0.074	inactive: 0.148	inactive: -0.116	inactive: 0.038
TUBAL3 (UniProt A6NHL2)	inactive: -0.018	inactive: -0.01	inactive: -0.076	inactive: -0.114	inactive: -0.011	inactive: -0.134	inactive: -0.025	inactive: 0.037	inactive: 0.078	inactive: 0.056	inactive: -0.145	inactive: 0.116	inactive: -0.009	inactive: -0.008		inactive: -0.119	inactive: -0.004	inactive: 0.002	inactive: -0.071	inactive: 0.025
TULP3 isoform 2 (UniProt O75386)	inactive: 0.244	inactive: -0.457	inactive: 0.048	inactive: -0.033	inactive: 0.03	inactive: -0.338			inactive: -0.04	inactive: 0.057	inactive: -0.042	inactive: 0.11	inactive: 0.03	inactive: -0.006		inactive: 0.006				
TUBB4A (UniProt M0QYM7)	inactive: -0.017	inactive: -0.063	inactive: 0.071	inactive: -0.015	inactive: 0.044	inactive: -0.097	inactive: -0.038	inactive: -0.027	inactive: 0.025	inactive: 0.103	inactive: -0.117	inactive: 0.005	inactive: -0.102		inactive: 0.13	inactive: 0.102	inactive: -0.322	inactive: 0.092	inactive: 0.049	inactive: 0.024
TUBG1 (UniProt P23258)	inactive: 0.033	inactive: -0.03	inactive: -0.036	inactive: 0	inactive: 0.049	inactive: -0.061	inactive: 0.002	inactive: -0.006	inactive: 0.055	inactive: -0.079	inactive: -0.066	inactive: 0.023	inactive: -0.024	inactive: -0.012	inactive: 0.003	inactive: 0	inactive: -0.029	inactive: -0.012	inactive: 0.013	inactive: -0.015
UBE2K (UniProt D6RDM7)	inactive: -0.209	inactive: -0.048	inactive: -0.088	inactive: -0.063		inactive: -0.006	inactive: 0.149	inactive: 0.08				inactive: 0.03	inactive: -0.12						inactive: -0.219	inactive: -0.06

Fetched one by one from the entries so far (two):
Target	log2 fold change (erlotinib)	log2 fold change [1]	log2 fold change [2]	log2 fold change [3]	log2 fold change [4]	log2 fold change [5]	log2 fold change [6]	log2 fold change [7]	log2 fold change (IRAK-1-4 Inhibitor I)	log2 fold change (ralimetinib)	log2 fold change [8]	log2 fold change [9]	log2 fold change [10]	log2 fold change [11]	log2 fold change [12]	log2 fold change [13]	log2 fold change [14]	log2 fold change (ibrutinib)	log2 fold change [15]	log2 fold change [16]
UBIAD1 (UniProt Q9Y5Z9)	inactive: 0.013	inactive: 0.16	inactive: -0.128	inactive: 0.092	inactive: 0.249	active: 0.46	inactive: 0.023	inactive: 0.057	inactive: -0.042	inactive: 0.01	inactive: 0.007	inactive: 0.067	inactive: -0.159	inactive: -0.049	inactive: 0.088	inactive: 0.012			inactive: -0.012	inactive: 0.009
UBC (UniProt P0CG48)	inactive: 0.028	inactive: -0.012	inactive: -0.003	inactive: -0.032	inactive: -0.027	inactive: -0.018	inactive: 0.02	inactive: 0.02	inactive: -0.011	inactive: 0.007	inactive: 0.021	inactive: 0.011	inactive: -0.053	inactive: -0.006	inactive: 0.021	inactive: 0.025	inactive: -0.012	inactive: 0.01	inactive: 0	inactive: -0.007
